# Test results as given in the supplement of paper PMC8728848.
# The list shows a part of the results.
# B1: truncCC1G-10077 (Coprinopsis cinerea) (protein)
# chain: MHHHHHHHHPLPSPGPGWVLIQNGGTGKFLCSTPSGDIGTADGPETVYDYSVQWRFIQREYTGVYHVVNRATGAYLRQIGTSMPSIGLAEENDDELKDWWMLETYDNSEIGLASIISRWTGNVLDHYGGVSVQALDNNTENSYRSWAIIPARDWLTSFSLVNGQGGLCLAAQYAREETRLSTTANVNDFHAQWVFRKPSGSSGYTIQNKYNNHYVGGTSARWELVVCCNKYFGIRNTSTQKYLAIEDGQVTFQDQDMTDRKQCWELCSGRATDTSGNDYDLIYMDDDLLEVMIPWVGDKQGDLKHYIEKRATKKPPKDKGGWQLPAAGLIKKPKFNDIRQLLQELIEQWEWDVVNEEREQIQTLVSIDEAEARRLLGRRPHPDIVAAYQRSRSSTLFRIDRQGYFNIAGDRYVNIQGQYGDDSYFHIALPVGVRFGREQIRRFLRDSLDRSTSVTITPTTCKPPSGGPDYNRDPDSDGDNSWIKWTIAVVGTSAIKHSEL
# Assays:
# Experiment in all cases: glycan array binding signal (z-score within array); higher = stronger binding
# Details in all cases: glycan notation: IUPAC condensed, linker removed
# [1] = target: GlcNAc(a1-4)Gal(b1-3)GlcNAc
# Method in brief: (§1)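 From the Consortium for Functional Glycomics database, 3228 arrays were curated, keeping only those whose protein sequence was available. Binding is given as a within-array Z-score averaged across arrays sharing a protein sequence and across linkers. Negative Z-scores can be read as non-binding.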
# [2] = target: GlcNAc(a1-4)Gal(b1-4)GalNAc
# Method in brief: as §1
# [3] = target: GlcNAc(a1-4)Gal(b1-4)GlcNAc
# Method in brief: as §1
# [4] = target: GlcNAc(a1-4)Gal(b1-4)GlcNAc(b1-3)Gal(b1-4)Glc
# Method in brief: as §1
# [5] = target: GlcNAc(a1-4)Gal(b1-4)GlcNAc(b1-3)Gal(b1-4)GlcNAc
# Method in brief: as §1
# [6] = target: GlcNAc(a1-4)Gal(b1-4)GlcNAc(b1-3)Gal(b1-4)GlcNAc(b1-3)Gal(b1-4)GlcNAc
# Method in brief: as §1
# [7] = target: GlcNAc(a1-4)Gal(b1-4)GlcNAc(b1-3)Gal(b1-4)[Fuc(a1-3)]GlcNAc(b1-3)Gal(b1-4)[Fuc(a1-3)]GlcNAc
# Method in brief: as §1
# [8] = target: GlcNAc(a1-6)Gal(b1-4)GlcNAc
# Method in brief: as §1
# [9] = target: GlcNAc(b1-2)Gal(b1-3)GalNAc
# Method in brief: as §1
# [10] = target: GlcNAc(b1-2)Man(a1-3)[GlcNAc(b1-2)Man(a1-6)]Man(b1-4)GlcNAc(b1-4)GlcNAc
# Method in brief: as §1
# [11] = target: GlcNAc(b1-2)Man(a1-3)[GlcNAc(b1-2)Man(a1-6)]Man(b1-4)GlcNAc(b1-4)[Fuc(a1-6)]GlcNAc
# Method in brief: as §1
# [12] = target: GlcNAc(b1-2)Man(a1-3)[GlcNAc(b1-4)][GlcNAc(b1-2)Man(a1-6)]Man(b1-4)GlcNAc(b1-4)GlcNAc
# Method in brief: as §1
# [13] = target: GlcNAc(b1-2)Man(a1-3)[GlcNAc(b1-4)][GlcNAc(b1-2)Man(a1-6)]Man(b1-4)GlcNAc(b1-4)[Fuc(a1-6)]GlcNAc
# Method in brief: as §1
# [14] = target: GlcNAc(b1-2)[GlcNAc(b1-4)]Man(a1-3)[GlcNAc(b1-2)Man(a1-6)]Man(b1-4)GlcNAc(b1-4)GlcNAc
# Method in brief: as §1
# [15] = target: GlcNAc(b1-2)[GlcNAc(b1-4)]Man(a1-3)[GlcNAc(b1-4)][GlcNAc(b1-2)Man(a1-6)]Man(b1-4)GlcNAc(b1-4)GlcNAc
# Method in brief: as §1
# [16] = target: GlcNAc(b1-2)[GlcNAc(b1-4)]Man(a1-3)[GlcNAc(b1-4)][GlcNAc(b1-2)[GlcNAc(b1-6)]Man(a1-6)]Man(b1-4)GlcNAc(b1-4)GlcNAc
# Method in brief: as §1
# [17] = target: GlcNAc(b1-2)[GlcNAc(b1-4)]Man(a1-3)[GlcNAc(b1-4)][GlcNAc(b1-2)[GlcNAc(b1-6)]Man(a1-6)]Man(b1-4)GlcNAc(b1-4)[Fuc(a1-6)]GlcNAc
# Method in brief: as §1
# [18] = target: GlcNAc(b1-2)[GlcNAc(b1-6)]Man(a1-6)[GlcNAc(b1-2)Man(a1-3)]Man(b1-4)GlcNAc(b1-4)GlcNAc
# Method in brief: as §1
# [19] = target: GlcNAc(b1-2)[GlcNAc(b1-6)]Man(a1-6)[GlcNAc(b1-2)Man(a1-3)]Man(b1-4)GlcNAc(b1-4)[Fuc(a1-6)]GlcNAc
# Method in brief: as §1
# [20] = target: GlcNAc(b1-2)[GlcNAc(b1-6)]Man(a1-6)[GlcNAc(b1-4)][GlcNAc(b1-2)Man(a1-3)]Man(b1-4)GlcNAc(b1-4)GlcNAc
# Method in brief: as §1
# GlcNAc(b1-3)Fuc = target: GlcNAc(b1-3)Fuc
# Method in brief: as §1
# GlcNAc(b1-3)Gal = target: GlcNAc(b1-3)Gal
# Method in brief: as §1
# [21] = target: GlcNAc(b1-3)Gal(b1-3)GalNAc
# Method in brief: as §1
# GlcNAc(b1-3)Gal(b1-4)Glc = target: GlcNAc(b1-3)Gal(b1-4)Glc
# Method in brief: as §1
# [22] = target: GlcNAc(b1-3)Gal(b1-4)GlcNAc
# Method in brief: as §1
# [23] = target: GlcNAc(b1-3)Gal(b1-4)GlcNAc(b1-2)Man(a1-3)[GlcNAc(b1-3)Gal(b1-4)GlcNAc(b1-2)Man(a1-6)]Man(b1-4)GlcNAc(b1-4)GlcNAc
# Method in brief: as §1
# [24] = target: GlcNAc(b1-3)Gal(b1-4)GlcNAc(b1-2)Man(a1-3)[GlcNAc(b1-3)Gal(b1-4)GlcNAc(b1-2)Man(a1-6)]Man(b1-4)GlcNAc(b1-4)[Fuc(a1-6)]GlcNAc
# Method in brief: as §1
# [25] = target: GlcNAc(b1-3)Gal(b1-4)GlcNAc(b1-2)[GlcNAc(b1-3)Gal(b1-4)GlcNAc(b1-6)]Man(a1-6)[GlcNAc(b1-3)Gal(b1-4)GlcNAc(b1-2)Man(a1-3)]Man(b1-4)GlcNAc(b1-4)GlcNAc
# Method in brief: as §1
# [26] = target: GlcNAc(b1-3)Gal(b1-4)GlcNAc(b1-3)Gal(b1-4)GlcNAc
# Method in brief: as §1
# [27] = target: GlcNAc(b1-3)Gal(b1-4)GlcNAc(b1-3)Gal(b1-4)GlcNAc(b1-2)Man(a1-3)[GlcNAc(b1-3)Gal(b1-4)GlcNAc(b1-3)Gal(b1-4)GlcNAc(b1-2)Man(a1-6)]Man(b1-4)GlcNAc(b1-4)GlcNAc
# Method in brief: as §1
# [28] = target: GlcNAc(b1-3)Gal(b1-4)GlcNAc(b1-3)Gal(b1-4)GlcNAc(b1-2)Man(a1-3)[GlcNAc(b1-3)Gal(b1-4)GlcNAc(b1-3)Gal(b1-4)GlcNAc(b1-2)Man(a1-6)]Man(b1-4)GlcNAc(b1-4)[Fuc(a1-6)]GlcNAc
# Method in brief: as §1
# [29] = target: GlcNAc(b1-3)Gal(b1-4)GlcNAc(b1-3)Gal(b1-4)GlcNAc(b1-2)[GlcNAc(b1-3)Gal(b1-4)GlcNAc(b1-3)Gal(b1-4)GlcNAc(b1-6)]Man(a1-6)[GlcNAc(b1-3)Gal(b1-4)GlcNAc(b1-3)Gal(b1-4)GlcNAc(b1-2)Man(a1-3)]Man(b1-4)GlcNAc(b1-4)[Fuc(a1-6)]GlcNAc
# Method in brief: as §1
# [30] = target: GlcNAc(b1-3)Gal(b1-4)GlcNAc(b1-3)Gal(b1-4)GlcNAc(b1-3)Gal(b1-4)GlcNAc(b1-2)Man(a1-3)[GlcNAc(b1-3)Gal(b1-4)GlcNAc(b1-3)Gal(b1-4)GlcNAc(b1-3)Gal(b1-4)GlcNAc(b1-2)Man(a1-6)]Man(b1-4)GlcNAc(b1-4)GlcNAc
# Method in brief: as §1
# [31] = target: GlcNAc(b1-3)Gal(b1-4)GlcNAc(b1-3)Gal(b1-4)GlcNAc(b1-3)Gal(b1-4)GlcNAc(b1-2)Man(a1-3)[GlcNAc(b1-3)Gal(b1-4)GlcNAc(b1-3)Gal(b1-4)GlcNAc(b1-3)Gal(b1-4)GlcNAc(b1-2)Man(a1-6)]Man(b1-4)GlcNAc(b1-4)[Fuc(a1-6)]GlcNAc
# Method in brief: as §1
# [32] = target: GlcNAc(b1-3)Gal(b1-4)GlcNAc(b1-3)Gal(b1-4)GlcNAc(b1-3)Gal(b1-4)GlcNAc(b1-2)[GlcNAc(b1-3)Gal(b1-4)GlcNAc(b1-3)Gal(b1-4)GlcNAc(b1-3)Gal(b1-4)GlcNAc(b1-6)]Man(a1-6)[GlcNAc(b1-3)Gal(b1-4)GlcNAc(b1-3)Gal(b1-4)GlcNAc(b1-3)Gal(b1-4)GlcNAc(b1-2)Man(a1-3)]Man(b1-4)GlcNAc(b1-4)[Fuc(a1-6)]GlcNAc
# Method in brief: as §1
# [33] = target: GlcNAc(b1-3)Gal(b1-4)GlcNAc(b1-3)Gal(b1-4)GlcNAc(b1-3)Gal(b1-4)GlcNAc(b1-3)Gal(b1-4)GlcNAc(b1-2)Man(a1-3)[GlcNAc(b1-3)Gal(b1-4)GlcNAc(b1-3)Gal(b1-4)GlcNAc(b1-3)Gal(b1-4)GlcNAc(b1-3)Gal(b1-4)GlcNAc(b1-2)Man(a1-6)]Man(b1-4)GlcNAc(b1-4)GlcNAc
# Method in brief: as §1
# [34] = target: GlcNAc(b1-3)Gal(b1-4)GlcNAc(b1-3)Gal(b1-4)GlcNAc(b1-3)Gal(b1-4)GlcNAc(b1-3)Gal(b1-4)GlcNAc(b1-2)Man(a1-3)[GlcNAc(b1-3)Gal(b1-4)GlcNAc(b1-3)Gal(b1-4)GlcNAc(b1-3)Gal(b1-4)GlcNAc(b1-3)Gal(b1-4)GlcNAc(b1-2)Man(a1-6)]Man(b1-4)GlcNAc(b1-4)[Fuc(a1-6)]GlcNAc
# Method in brief: as §1
# [35] = target: GlcNAc(b1-3)Gal(b1-4)GlcNAc(b1-3)Gal(b1-4)GlcNAc(b1-3)Gal(b1-4)GlcNAc(b1-3)Gal(b1-4)GlcNAc(b1-2)[GlcNAc(b1-3)Gal(b1-4)GlcNAc(b1-3)Gal(b1-4)GlcNAc(b1-3)Gal(b1-4)GlcNAc(b1-3)Gal(b1-4)GlcNAc(b1-6)]Man(a1-6)[GlcNAc(b1-3)Gal(b1-4)GlcNAc(b1-3)Gal(b1-4)GlcNAc(b1-3)Gal(b1-4)GlcNAc(b1-3)Gal(b1-4)GlcNAc(b1-2)Man(a1-3)]Man(b1-4)GlcNAc(b1-4)[Fuc(a1-6)]GlcNAc
# Method in brief: as §1
binder,measurement,setting,value
B1,glycan array binding signal (z-score),[1],-0.562
same,glycan array binding signal (z-score),[2],0.453
same,glycan array binding signal (z-score),[3],-0.553
same,glycan array binding signal (z-score),[4],-0.668
same,glycan array binding signal (z-score),[5],-0.818
same,glycan array binding signal (z-score),[6],-0.028
same,glycan array binding signal (z-score),[7],0.607
same,glycan array binding signal (z-score),[8],-1.04
same,glycan array binding signal (z-score),[9],-0.975
same,glycan array binding signal (z-score),[10],-0.459
same,glycan array binding signal (z-score),[11],1.56
same,glycan array binding signal (z-score),[12],-0.47
same,glycan array binding signal (z-score),[13],-0.611
same,glycan array binding signal (z-score),[14],-0.648
same,glycan array binding signal (z-score),[15],-0.641
same,glycan array binding signal (z-score),[16],-0.003
same,glycan array binding signal (z-score),[17],-0.938
same,glycan array binding signal (z-score),[18],-0.579
same,glycan array binding signal (z-score),[19],1.97
same,glycan array binding signal (z-score),[20],-0.761
same,glycan array binding signal (z-score),GlcNAc(b1-3)Fuc,-1.4
same,glycan array binding signal (z-score),GlcNAc(b1-3)Gal,-1
same,glycan array binding signal (z-score),[21],-0.15
same,glycan array binding signal (z-score),GlcNAc(b1-3)Gal(b1-4)Glc,-0.274
same,glycan array binding signal (z-score),[22],-0.127
same,glycan array binding signal (z-score),[23],0.166
same,glycan array binding signal (z-score),[24],2.45
same,glycan array binding signal (z-score),[25],0.207
same,glycan array binding signal (z-score),[26],-0.104
same,glycan array binding signal (z-score),[27],1.17
same,glycan array binding signal (z-score),[28],2.08
same,glycan array binding signal (z-score),[29],-0.021
same,glycan array binding signal (z-score),[30],-0.258
same,glycan array binding signal (z-score),[31],1.05
same,glycan array binding signal (z-score),[32],0.218
same,glycan array binding signal (z-score),[33],1.96
same,glycan array binding signal (z-score),[34],0.189
same,glycan array binding signal (z-score),[35],0.672

# An excerpt of these results, as tab-separated lines:
binder	measurement	setting	value
B1	glycan array binding signal (z-score)	[17]	-0.938
same	glycan array binding signal (z-score)	[18]	-0.579
same	glycan array binding signal (z-score)	[19]	1.97
